Measurements from the supplement of paper PMC12067093, “Discovery and optimisation of a covalent ligand for TRIM25 and its application to targeted protein ubiquitination” (Chemical Science, 2025).
The list shows a part of the results.

Amino acid sequences for entries named in this document (tags omitted). A change or cut given only in a name is not applied to a line headed by its entry.
UniProt Q06187: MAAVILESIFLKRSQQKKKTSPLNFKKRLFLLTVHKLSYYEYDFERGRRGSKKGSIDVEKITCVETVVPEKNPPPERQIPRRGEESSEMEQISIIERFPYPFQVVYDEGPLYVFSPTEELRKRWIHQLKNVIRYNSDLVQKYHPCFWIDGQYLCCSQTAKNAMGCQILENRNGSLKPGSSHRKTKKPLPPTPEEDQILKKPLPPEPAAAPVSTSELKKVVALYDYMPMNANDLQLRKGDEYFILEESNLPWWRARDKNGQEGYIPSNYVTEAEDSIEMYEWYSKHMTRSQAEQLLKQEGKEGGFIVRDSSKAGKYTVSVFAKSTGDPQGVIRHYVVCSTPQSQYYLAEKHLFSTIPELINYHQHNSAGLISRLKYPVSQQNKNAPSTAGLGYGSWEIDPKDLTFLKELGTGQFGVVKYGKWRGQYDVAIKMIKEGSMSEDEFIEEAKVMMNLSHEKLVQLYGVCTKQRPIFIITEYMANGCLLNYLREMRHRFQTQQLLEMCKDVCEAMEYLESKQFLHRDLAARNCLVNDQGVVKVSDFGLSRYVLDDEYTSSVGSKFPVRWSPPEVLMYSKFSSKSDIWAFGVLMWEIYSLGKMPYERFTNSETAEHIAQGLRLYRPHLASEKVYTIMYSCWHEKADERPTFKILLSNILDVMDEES
UniProt O95415: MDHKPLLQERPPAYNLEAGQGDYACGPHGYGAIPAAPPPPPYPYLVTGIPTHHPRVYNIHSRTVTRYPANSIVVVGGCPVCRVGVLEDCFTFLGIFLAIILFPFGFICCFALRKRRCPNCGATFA
UniProt O14523: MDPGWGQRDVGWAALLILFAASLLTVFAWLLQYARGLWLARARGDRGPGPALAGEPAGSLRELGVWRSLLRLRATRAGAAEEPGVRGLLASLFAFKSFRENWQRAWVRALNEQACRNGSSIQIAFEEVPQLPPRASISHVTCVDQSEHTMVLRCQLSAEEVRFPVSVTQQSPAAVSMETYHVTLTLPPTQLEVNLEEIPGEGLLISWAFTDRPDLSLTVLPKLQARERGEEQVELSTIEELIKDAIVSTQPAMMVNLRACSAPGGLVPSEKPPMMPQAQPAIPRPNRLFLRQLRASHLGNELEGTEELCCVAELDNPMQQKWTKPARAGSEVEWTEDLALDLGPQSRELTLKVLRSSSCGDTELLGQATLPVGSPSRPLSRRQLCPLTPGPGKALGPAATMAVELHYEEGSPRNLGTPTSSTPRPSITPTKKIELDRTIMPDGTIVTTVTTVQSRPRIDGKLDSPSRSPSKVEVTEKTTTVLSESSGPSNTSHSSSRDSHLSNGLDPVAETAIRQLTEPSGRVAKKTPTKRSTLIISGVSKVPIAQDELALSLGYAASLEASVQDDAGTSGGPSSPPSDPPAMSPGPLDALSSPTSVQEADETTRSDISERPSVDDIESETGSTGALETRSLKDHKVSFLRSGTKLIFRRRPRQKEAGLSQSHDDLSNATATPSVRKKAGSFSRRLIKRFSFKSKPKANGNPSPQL
UniProt P27708: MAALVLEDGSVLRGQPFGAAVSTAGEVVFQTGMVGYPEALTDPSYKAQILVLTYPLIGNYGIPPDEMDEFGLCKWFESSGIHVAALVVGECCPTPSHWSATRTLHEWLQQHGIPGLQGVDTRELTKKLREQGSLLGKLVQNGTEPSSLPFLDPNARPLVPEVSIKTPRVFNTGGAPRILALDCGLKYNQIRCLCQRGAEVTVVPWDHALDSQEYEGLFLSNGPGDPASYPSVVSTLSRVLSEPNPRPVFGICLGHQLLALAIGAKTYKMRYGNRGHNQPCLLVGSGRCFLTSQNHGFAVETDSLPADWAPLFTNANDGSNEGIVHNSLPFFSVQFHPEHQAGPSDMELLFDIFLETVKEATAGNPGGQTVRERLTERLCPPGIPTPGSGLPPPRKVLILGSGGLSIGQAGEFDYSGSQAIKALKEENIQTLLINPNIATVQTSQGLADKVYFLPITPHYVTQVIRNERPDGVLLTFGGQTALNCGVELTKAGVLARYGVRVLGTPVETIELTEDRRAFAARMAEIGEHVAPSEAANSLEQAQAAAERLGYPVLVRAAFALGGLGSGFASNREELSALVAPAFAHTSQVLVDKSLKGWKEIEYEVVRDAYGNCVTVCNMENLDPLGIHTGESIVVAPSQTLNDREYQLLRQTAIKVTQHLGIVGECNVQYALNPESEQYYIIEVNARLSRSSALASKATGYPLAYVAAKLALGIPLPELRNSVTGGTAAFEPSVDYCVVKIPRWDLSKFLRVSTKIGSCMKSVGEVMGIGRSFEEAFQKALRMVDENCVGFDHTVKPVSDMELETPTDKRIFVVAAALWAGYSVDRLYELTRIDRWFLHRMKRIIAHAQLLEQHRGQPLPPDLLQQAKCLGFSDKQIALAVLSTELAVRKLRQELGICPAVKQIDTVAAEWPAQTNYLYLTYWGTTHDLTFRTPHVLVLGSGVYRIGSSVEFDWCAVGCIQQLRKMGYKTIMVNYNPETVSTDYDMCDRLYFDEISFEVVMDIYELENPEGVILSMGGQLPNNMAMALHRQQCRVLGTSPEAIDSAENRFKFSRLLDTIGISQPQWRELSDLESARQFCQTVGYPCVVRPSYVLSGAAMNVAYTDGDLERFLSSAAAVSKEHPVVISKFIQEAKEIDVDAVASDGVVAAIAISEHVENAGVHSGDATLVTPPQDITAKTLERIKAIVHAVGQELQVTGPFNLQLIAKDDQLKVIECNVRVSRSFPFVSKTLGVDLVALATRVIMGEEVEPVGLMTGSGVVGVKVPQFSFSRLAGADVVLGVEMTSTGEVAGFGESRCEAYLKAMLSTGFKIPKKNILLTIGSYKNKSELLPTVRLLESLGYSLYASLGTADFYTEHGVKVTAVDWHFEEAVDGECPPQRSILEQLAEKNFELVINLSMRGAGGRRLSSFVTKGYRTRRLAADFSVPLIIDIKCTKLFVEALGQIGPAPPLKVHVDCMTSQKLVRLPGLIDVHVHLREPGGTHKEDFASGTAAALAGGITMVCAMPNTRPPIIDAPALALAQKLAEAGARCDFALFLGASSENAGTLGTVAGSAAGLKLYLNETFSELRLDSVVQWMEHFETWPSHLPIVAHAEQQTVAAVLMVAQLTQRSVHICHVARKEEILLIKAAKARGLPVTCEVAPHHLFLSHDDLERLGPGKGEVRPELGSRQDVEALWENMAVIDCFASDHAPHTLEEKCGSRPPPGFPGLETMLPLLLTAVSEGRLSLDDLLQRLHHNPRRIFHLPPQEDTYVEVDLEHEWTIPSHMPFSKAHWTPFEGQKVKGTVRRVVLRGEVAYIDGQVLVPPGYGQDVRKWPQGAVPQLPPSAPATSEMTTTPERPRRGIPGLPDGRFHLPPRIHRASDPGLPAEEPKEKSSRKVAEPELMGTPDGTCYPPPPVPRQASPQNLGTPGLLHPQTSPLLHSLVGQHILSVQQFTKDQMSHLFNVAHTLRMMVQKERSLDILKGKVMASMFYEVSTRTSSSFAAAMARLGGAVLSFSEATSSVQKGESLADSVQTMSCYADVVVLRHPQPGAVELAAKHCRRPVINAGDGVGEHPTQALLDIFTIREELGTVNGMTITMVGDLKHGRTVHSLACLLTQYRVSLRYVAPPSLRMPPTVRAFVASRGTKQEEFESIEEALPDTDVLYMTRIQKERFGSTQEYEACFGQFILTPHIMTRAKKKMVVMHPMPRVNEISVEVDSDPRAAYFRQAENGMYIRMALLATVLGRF
UniProt O14981: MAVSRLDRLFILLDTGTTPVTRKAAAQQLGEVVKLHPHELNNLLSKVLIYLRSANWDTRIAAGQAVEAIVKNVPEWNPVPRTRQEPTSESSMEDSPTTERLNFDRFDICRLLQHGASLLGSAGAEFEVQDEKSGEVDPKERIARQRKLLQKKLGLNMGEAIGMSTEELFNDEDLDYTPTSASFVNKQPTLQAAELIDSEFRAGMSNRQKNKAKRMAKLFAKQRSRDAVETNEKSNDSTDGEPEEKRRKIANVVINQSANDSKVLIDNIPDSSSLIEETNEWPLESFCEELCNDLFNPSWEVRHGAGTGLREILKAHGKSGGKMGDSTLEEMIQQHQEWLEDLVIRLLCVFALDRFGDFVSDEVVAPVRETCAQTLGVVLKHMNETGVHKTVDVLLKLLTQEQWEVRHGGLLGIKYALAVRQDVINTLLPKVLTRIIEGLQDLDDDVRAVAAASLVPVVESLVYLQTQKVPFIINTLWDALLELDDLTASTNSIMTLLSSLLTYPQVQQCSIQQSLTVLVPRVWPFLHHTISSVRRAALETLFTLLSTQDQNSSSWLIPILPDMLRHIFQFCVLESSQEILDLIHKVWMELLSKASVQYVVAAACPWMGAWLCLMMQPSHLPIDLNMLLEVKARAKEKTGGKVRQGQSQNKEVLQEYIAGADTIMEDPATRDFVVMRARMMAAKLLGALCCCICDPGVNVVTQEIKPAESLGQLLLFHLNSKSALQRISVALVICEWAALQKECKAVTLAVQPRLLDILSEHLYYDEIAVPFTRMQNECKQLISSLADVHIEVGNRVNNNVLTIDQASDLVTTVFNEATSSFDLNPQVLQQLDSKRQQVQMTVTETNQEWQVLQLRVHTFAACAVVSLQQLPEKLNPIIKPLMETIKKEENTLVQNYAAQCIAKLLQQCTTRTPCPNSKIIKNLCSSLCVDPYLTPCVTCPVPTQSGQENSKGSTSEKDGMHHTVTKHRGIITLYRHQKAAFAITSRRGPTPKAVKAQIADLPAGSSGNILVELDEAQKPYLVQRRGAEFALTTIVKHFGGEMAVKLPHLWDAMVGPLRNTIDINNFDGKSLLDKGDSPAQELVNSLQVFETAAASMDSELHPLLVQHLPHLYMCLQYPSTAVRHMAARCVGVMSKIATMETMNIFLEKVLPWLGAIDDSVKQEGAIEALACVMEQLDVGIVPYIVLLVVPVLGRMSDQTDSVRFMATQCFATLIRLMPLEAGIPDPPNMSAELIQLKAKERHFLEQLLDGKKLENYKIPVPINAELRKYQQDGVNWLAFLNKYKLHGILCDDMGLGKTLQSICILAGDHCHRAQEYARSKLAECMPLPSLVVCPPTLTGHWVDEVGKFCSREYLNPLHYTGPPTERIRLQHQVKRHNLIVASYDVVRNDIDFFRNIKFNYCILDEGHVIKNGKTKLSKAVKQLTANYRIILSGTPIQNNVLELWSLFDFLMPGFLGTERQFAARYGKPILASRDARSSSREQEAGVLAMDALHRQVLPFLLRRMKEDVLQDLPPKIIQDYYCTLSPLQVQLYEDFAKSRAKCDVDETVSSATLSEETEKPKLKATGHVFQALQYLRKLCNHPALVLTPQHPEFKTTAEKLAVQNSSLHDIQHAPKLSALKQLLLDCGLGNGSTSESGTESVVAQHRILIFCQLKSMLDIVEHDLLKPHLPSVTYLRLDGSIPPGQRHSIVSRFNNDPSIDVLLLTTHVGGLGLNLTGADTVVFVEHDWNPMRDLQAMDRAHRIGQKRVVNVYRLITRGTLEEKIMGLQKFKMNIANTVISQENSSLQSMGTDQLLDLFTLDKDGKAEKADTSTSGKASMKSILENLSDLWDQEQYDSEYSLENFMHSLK

Compound: Cc1cc(ccc1-c1ccccc1)C(=O)N1CCCN(CC1)C(=O)CCl [compound 10]
Assay: probe-labelled cysteine peptide fold change vs DMSO (competition) (log2 fold change); higher = less target engagement (more negative = stronger competition)
Conditions: 10 µM; THP-1; incubation time: 4 h
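Also: competitive profiling in live THP-1 cells: cysteine peptides tagged with an iodoacetamide desthiobiotin (IA-DTB) probe, intensity after compound treatment relative to DMSO-treated cells.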

| Target | probe-labelled cysteine peptide fold change |
| --- | --- |
| BRCA1_P38398_1513_WYMHSCSGSLQNR (UniProt P38398) | -0.077 |
| C1orf50_Q9BV19_144_EWGTSCPHDFLGAYK (UniProt Q9BV19) | 0.181 |
| CANX_P27824_360_CESAPGCGVWQR (UniProt P27824) | -0.0628 |
| C12orf29_Q8N999_302_CLFNHFLK (UniProt Q8N999) | 0.028 |
| C12orf29_Q8N999_117_EFFWNVEEDFKPAPECWIPAK (UniProt Q8N999) | -0.0646 |
| C3_P01024_1458_VSHSEDDCLAFK (UniProt P01024) | -0.0484 |
| C8orf82_Q6P1X6_98_YEAAFPFLSPCGR (UniProt Q6P1X6) | -0.0795 |
| BUD31_P41223_134_IIECTHCGCR (UniProt P41223) | 0.204 |
| C11orf54_Q9H0W9_149_CHDFQCALLANLFASEGQPGK (UniProt Q9H0W9) | 0.198 |
| BTK_Q06187_502_FQTQQLLEMCK (UniProt Q06187) | -0.166 |
| C6orf89_Q6UWU4_28_QTGHQCGMSEK (UniProt Q6UWU4) | -0.406 |
| BRAT1_Q6PJG6_308_LEHCPQALR (UniProt Q6PJG6) | -0.441 |
| BTK_Q06187_527_NCLVNDQGVVK (UniProt Q06187) | -0.0292 |
| BRI3_O95415_78_YPANSIVVVGGCPVCR (UniProt O95415) | -0.0909 |
| CAND1_Q86VP6_356_CLDAVVSTR (UniProt Q86VP6) | 0.0918 |
| BRIX1_Q8TDN6_158_MTGNCLK (UniProt Q8TDN6) | -0.118 |
| BRD1_O95696_86_ENSERPPVCLR (UniProt O95696) | -0.304 |
| CAMSAP1_Q5T5Y3_47_IAANLQWICAK (UniProt Q5T5Y3) | 0.165 |
| C2CD2L_O14523_359_SSSCGDTELLGQATLPVGSPSRPLSR (UniProt O14523) | 0.123 |
| CAMK2B_Q13554_273_HPWVCQR (UniProt Q13554) | -0.00337 |

A few values from the entries so far:
In probe-labelled cysteine peptide fold change, BTK_Q06187_527_NCLVNDQGVVK (UniProt Q06187) shows -0.0292
In probe-labelled cysteine peptide fold change, BRI3_O95415_78_YPANSIVVVGGCPVCR (UniProt O95415) shows -0.0909

Remaining list, next part:

| Target | probe-labelled cysteine peptide fold change |
| --- | --- |
| CAD_P27708_1296_CEAYLK (UniProt P27708) | -0.127 |
| C16orf62_Q7Z3J2_277_ETCLNWFFK (UniProt Q7Z3J2) | 0.0597 |
| BSG_P35613_203_VDSDDQWGEYSCVFLPEPMGTANIQLHGPPR (UniProt P35613) | 0.157 |
| C16orf62_Q7Z3J2_20_AEFASCR (UniProt Q7Z3J2) | -0.12 |
| CAND1_Q86VP6_92_EYQVETIVDTLCTNMLSDK (UniProt Q86VP6) | 0.0398 |
| BTAF1_O14981_1290_LHGILCDDMGLGK (UniProt O14981) | -0.0956 |
| CABIN1_Q9Y6J0_1573_DVLLGSSIPWQQLQHMPAQGLFCER (UniProt Q9Y6J0) | 0.1 |
| CAD_P27708_787_MVDENCVGFDHTVKPVSDMELETPTDKR (UniProt P27708) | -0.272 |
| BST1_Q10588_271+280_LLQCVDHSTHPDCALK (UniProt Q10588) | -0.384 |
| C9orf64_Q5T6V5_281_GCSLWCVELIR (UniProt Q5T6V5) | 0.465 |
| C2CD2L_O14523_385_QLCPLTPGPGK (UniProt O14523) | -0.0754 |
| BRD8_Q9H0E9-2_941_CAIEADMK (UniProt Q9H0E9) | -0.376 |
| BUB1_O43683_407_DAGCVNK (UniProt O43683) | -0.0681 |
| BRD7_Q9NPI1_107_DLQCHAPVR (UniProt Q9NPI1) | -0.177 |
| C3orf58_Q8NDZ4_170_LLTPEAVEGWSDLVHCPSQR (UniProt Q8NDZ4) | -0.229 |
| BTAF1_O14981_1401_FNYCILDEGHVIK (UniProt O14981) | 0.0296 |
| CACUL1_Q86Y37_362_AGDELAYNSSSACASSR (UniProt Q86Y37) | -0.307 |
| BTK_Q06187_506_DVCEAMEYLESK (UniProt Q06187) | 0.149 |
| C2orf69_Q8N8R5_267_GCVVLNQLLFELK (UniProt Q8N8R5) | 0.194 |
